The list shows a part of the results.
What was measured:
Experiment in all cases: log2 fold change, soluble protein after heating vs DMSO (PISA); higher = thermal stabilisation; K562 lysate, 10 uM; active = over 0.2 and 3.5 SD of the protein, either way, in both replicates (recomputed)
[1] = compound: C#Cc1cccc(Nc2ncnc3cc(OCCOC)c(OCCOC)cc23)c1 [erlotinib]
Summary of the method: (§1)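 Pellets of K562 cells were dounce-homogenised in PBS pH 7.4 with 1 mM MgCl2, and the crude extract was held at 1 mg/mL protein for a 30 min treatment with 10 μM compound. Aliquots were heated for 3 min over 48°C-58°C and pooled before NP-40 was added to 0.5% at 4°C. The supernatant from 21,000xg for 90 min was quantified by TMTpro 16plex LC-MS/MS with channel sums equalised. Values are reported from duplicates as log-two fold change in thermal stability relative to solvent controls.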

Sequences of proteins named here, by UniProt entry; tags and fusion partners are left off. A change or cut given only in a name is not applied to a line headed by its entry.
UniProt Q06587: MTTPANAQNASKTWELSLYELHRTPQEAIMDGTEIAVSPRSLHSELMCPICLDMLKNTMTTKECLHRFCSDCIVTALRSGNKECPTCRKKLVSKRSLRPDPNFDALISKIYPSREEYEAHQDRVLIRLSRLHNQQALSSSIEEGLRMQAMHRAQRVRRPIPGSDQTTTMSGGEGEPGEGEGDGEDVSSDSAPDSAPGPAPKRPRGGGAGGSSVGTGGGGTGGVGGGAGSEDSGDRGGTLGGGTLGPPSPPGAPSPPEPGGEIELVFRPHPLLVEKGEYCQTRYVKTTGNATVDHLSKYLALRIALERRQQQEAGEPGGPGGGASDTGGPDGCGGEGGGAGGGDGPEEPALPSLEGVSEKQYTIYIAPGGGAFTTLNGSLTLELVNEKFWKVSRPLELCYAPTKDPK
UniProt O75116: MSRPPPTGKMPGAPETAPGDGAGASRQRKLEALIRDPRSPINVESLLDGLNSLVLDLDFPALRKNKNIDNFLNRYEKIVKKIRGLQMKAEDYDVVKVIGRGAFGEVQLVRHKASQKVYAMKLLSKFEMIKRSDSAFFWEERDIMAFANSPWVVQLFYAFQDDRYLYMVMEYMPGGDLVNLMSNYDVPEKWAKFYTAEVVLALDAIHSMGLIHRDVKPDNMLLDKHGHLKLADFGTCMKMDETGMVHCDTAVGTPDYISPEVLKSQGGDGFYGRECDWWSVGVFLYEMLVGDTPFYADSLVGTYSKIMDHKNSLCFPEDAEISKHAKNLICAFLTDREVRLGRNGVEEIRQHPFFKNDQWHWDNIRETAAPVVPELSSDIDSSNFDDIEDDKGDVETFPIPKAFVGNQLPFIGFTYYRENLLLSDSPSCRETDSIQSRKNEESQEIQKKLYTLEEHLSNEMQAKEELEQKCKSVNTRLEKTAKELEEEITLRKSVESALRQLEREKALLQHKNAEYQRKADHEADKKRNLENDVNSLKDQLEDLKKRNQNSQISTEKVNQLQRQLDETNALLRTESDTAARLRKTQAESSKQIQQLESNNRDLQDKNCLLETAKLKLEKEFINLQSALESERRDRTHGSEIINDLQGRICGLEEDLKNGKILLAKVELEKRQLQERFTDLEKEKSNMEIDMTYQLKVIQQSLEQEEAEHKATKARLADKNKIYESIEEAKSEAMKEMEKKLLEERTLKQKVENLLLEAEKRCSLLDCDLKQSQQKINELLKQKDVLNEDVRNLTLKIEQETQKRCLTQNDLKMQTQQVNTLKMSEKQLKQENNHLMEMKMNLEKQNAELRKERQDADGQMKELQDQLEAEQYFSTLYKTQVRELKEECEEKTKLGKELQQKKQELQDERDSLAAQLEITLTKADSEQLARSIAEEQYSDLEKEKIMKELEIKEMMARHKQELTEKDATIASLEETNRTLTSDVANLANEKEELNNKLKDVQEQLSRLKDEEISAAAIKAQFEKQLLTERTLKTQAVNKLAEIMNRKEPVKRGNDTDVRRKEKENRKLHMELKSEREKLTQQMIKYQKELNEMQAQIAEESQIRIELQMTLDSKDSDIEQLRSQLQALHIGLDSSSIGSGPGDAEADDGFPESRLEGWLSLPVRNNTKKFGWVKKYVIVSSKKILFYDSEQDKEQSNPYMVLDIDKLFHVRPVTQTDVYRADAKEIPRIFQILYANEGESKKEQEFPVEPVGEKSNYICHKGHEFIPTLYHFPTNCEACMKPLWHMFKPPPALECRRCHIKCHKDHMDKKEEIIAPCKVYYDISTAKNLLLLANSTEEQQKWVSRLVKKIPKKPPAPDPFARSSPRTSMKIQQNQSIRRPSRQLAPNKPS
UniProt Q96A37: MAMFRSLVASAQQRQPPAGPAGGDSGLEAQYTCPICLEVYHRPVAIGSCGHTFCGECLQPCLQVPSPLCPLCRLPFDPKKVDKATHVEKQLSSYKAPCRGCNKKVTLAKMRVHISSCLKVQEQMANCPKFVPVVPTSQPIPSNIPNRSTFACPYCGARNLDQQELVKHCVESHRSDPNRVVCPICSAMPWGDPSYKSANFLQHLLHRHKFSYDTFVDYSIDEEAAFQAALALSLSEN
UniProt Q4ADV7: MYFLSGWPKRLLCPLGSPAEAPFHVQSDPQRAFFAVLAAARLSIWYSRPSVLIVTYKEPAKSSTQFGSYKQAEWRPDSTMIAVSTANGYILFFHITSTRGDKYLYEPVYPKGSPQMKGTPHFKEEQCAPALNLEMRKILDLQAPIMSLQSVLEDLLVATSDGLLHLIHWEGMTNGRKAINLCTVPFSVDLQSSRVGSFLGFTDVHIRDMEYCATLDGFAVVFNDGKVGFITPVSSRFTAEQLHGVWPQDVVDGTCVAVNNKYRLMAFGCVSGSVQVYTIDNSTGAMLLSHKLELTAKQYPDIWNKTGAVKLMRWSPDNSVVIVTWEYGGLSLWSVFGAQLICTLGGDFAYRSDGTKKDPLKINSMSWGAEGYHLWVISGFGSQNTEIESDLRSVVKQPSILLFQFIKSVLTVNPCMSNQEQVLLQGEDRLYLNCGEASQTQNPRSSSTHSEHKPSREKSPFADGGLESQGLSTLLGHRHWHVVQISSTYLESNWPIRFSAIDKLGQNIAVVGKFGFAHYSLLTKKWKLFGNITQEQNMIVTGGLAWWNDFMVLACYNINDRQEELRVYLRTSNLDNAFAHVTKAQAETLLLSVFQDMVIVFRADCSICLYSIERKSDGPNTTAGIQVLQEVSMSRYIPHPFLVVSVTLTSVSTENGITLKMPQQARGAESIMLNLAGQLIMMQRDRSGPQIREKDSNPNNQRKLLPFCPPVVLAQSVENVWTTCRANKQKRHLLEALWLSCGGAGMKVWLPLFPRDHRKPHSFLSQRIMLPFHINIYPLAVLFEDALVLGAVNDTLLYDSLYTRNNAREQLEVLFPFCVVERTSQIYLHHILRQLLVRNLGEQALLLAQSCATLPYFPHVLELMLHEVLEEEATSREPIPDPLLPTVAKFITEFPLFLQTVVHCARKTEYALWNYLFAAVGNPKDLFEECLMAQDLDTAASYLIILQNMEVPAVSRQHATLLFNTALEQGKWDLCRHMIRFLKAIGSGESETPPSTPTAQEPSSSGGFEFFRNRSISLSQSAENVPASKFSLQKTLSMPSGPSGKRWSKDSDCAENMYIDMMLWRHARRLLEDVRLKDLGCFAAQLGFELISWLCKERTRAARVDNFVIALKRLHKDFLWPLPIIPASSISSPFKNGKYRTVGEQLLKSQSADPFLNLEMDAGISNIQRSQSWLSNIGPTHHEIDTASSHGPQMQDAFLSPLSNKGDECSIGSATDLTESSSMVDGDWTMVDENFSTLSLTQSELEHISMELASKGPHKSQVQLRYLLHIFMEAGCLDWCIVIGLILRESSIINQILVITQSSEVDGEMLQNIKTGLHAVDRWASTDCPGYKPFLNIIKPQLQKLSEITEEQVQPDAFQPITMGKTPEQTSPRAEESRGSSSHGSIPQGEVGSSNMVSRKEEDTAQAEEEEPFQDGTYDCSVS
UniProt P15927: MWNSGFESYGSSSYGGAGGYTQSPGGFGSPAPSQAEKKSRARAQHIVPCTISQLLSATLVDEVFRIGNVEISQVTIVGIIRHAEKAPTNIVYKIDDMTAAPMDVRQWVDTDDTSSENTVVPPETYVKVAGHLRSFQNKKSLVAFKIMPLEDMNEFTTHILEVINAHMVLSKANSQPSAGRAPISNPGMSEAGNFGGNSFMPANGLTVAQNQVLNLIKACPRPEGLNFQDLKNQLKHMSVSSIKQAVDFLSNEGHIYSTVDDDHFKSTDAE
UniProt Q9BVS4: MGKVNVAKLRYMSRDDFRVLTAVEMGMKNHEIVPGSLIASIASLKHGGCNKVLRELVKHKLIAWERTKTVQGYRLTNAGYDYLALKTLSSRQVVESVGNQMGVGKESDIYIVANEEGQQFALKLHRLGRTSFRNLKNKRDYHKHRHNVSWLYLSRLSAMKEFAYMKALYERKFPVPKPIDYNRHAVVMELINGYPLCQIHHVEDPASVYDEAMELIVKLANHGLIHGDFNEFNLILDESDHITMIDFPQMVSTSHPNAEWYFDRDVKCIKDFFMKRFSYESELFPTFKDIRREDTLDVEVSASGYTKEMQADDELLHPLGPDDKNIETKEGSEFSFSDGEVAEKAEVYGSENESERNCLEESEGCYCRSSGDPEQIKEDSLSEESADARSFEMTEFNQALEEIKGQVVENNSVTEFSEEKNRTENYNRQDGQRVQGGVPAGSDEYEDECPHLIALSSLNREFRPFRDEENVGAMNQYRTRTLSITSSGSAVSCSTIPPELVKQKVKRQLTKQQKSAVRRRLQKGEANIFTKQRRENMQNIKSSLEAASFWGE
UniProt Q8IYW5, whole entry, looked up: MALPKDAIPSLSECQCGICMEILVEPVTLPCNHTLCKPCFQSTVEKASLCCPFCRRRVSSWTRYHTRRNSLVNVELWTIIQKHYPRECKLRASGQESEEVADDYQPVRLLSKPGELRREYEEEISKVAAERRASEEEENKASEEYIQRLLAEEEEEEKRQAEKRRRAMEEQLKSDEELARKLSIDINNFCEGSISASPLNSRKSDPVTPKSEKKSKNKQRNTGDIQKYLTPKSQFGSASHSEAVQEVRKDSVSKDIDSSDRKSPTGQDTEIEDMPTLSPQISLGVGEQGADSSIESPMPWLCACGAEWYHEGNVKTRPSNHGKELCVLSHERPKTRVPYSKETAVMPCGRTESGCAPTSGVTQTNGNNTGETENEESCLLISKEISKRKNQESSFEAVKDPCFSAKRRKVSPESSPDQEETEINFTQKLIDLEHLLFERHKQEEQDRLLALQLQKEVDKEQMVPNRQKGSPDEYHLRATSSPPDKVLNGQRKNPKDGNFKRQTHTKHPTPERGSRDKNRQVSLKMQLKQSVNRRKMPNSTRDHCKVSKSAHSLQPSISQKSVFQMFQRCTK
UniProt Q9H7B2: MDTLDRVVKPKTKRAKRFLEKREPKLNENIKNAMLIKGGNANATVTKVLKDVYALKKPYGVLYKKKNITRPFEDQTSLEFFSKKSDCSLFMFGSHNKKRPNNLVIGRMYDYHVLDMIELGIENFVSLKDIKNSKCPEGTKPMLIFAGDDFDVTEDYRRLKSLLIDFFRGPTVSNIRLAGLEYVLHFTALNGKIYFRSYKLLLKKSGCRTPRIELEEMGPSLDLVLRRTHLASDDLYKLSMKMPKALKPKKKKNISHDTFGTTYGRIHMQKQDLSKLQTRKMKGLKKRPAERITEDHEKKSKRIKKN
UniProt Q96E14: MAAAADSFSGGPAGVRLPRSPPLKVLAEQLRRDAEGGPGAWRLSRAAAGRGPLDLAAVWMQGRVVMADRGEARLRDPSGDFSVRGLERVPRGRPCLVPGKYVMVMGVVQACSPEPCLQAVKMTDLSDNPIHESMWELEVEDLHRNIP
UniProt Q5VTR2, whole entry, looked up: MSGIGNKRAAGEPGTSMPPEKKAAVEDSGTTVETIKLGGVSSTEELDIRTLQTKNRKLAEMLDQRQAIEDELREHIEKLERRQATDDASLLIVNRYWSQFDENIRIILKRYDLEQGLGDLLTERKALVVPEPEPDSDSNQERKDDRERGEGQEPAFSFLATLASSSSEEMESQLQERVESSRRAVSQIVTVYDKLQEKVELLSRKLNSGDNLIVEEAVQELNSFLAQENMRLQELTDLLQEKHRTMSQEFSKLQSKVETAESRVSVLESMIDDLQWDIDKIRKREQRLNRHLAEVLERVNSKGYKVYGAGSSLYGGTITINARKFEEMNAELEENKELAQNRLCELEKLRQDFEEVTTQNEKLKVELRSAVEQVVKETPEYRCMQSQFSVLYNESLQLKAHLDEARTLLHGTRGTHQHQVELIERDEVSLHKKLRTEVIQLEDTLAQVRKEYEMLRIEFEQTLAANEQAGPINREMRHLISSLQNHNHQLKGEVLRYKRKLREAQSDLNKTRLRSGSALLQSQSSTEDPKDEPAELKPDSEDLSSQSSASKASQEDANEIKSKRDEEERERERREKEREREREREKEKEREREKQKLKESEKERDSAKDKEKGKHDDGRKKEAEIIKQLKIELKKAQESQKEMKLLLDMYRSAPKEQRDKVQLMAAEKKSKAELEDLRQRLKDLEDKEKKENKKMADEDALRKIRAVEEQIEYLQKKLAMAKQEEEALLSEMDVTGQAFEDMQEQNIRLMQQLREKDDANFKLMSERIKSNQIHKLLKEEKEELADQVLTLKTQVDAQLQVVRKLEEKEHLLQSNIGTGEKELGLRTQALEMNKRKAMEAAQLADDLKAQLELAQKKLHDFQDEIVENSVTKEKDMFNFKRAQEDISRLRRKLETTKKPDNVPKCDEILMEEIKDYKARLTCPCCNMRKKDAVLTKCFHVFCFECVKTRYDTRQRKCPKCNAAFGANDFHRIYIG
UniProt Q96DB5: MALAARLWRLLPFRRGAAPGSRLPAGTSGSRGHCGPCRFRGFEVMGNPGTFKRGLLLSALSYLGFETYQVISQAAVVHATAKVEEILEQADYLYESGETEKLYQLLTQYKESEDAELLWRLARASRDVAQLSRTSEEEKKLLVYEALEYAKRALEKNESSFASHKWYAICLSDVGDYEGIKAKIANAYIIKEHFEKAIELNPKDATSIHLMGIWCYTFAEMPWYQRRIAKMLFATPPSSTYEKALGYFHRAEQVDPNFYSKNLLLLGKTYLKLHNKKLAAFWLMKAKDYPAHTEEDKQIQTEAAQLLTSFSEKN

[2] = compound: C/C(=N\NC(=O)C1=CC(=CC=C1)S(=O)(=O)N2CCOCC2)/C3=C(C=CC(=C3)Cl)O
Summary of the method: as §1

[3] = compound: C1=CC(=CC=C1C2=NC3=C(N2)C=C(C=C3)C(=O)N)OC4=CC=C(C=C4)Cl
Summary of the method: as §1

[4] = compound: C1=CC2=C(C=CC(=C2)/C=C\3/C(=O)NC(=NCC4=CC=CS4)S3)N=C1
Summary of the method: as §1

[5] = compound: C1=CC2=NC=CN=C2C=C1/C=C/3\C(=O)NC(=O)S3
Summary of the method: as §1

[6] = compound: C1=CC=C(C=C1)C2=NC(=C(N2)C3=CC=NC=C3)C4=CC(=C(C=C4)Cl)O
Summary of the method: as §1

[7] = compound: C1=CC=C2C(=C1)C3=NNC4=CC=CC(=C43)C2=O
Summary of the method: as §1

[8] = compound: C1CCN(C1)C(=O)NC2=CC=CC(=C2)NC3=NC=C(C(=N3)NCCC4=CN=CN4)Br
Summary of the method: as §1

[9] = compound: C1CN(CCC1(CC2=CC=C(C=C2)Cl)N)C3=NC=NC4=C3C=CN4
Summary of the method: as §1

[10] = compound: C1COCCN1CCN2C3=CC=CC=C3N=C2NC(=O)C4=CC(=CC=C4)[N+](=O)[O-] [IRAK-1-4 Inhibitor I]
Summary of the method: as §1

Measured: log2 fold change

RING1 (UniProt Q06587)
inactive: [1] -0.03 | [2] -0.057 | [3] -0.011 | [4] 0.065 | [5] 0.058 | [6] -0.049 | [7] -0.047 | [8] -0.005 | [9] 0.001 | [10] 0.052

ROCK1 (UniProt Q13464)
inactive: [1] -0.01 | [2] 0.029 | [3] 0 | [4] 0.075 | [5] -0.036 | [6] -0.004 | [7] -0.041 | [8] 0.008 | [9] 0.075 | [10] 0.004

ROR2 (UniProt Q01974)
inactive: [1] 0.007 | [2] -0.017 | [3] 0.005 | [4] 0.027 | [5] -0.019 | [6] -0.002 | [7] -0.042 | [8] 0.01 | [9] 0.074 | [10] 0

RNF214 (UniProt Q8ND24)
inactive: [1] -0.01 | [2] -0.043 | [3] 0.065 | [4] -0.019 | [5] -0.045 | [6] -0.007 | [7] 0.02 | [8] -0.024 | [9] 0.048 | [10] -0.003

ROCK2 (UniProt O75116)
inactive: [1] 0.027 | [2] -0.023 | [3] 0.025 | [4] 0.121 | [5] 0.001 | [6] -0.009 | [7] -0.012 | [8] 0.031 | [9] 0.059 | [10] -0.003

Taken from the results shown (two entries):
ROR2 (UniProt Q01974)
inactive: [1] 0.007 | [2] -0.017 | [3] 0.005 | [4] 0.027 | [5] -0.019 | [6] -0.002 | [7] -0.042 | [8] 0.01 | [9] 0.074 | [10] 0

RNF214 (UniProt Q8ND24)
inactive: [1] -0.01 | [2] -0.043 | [3] 0.065 | [4] -0.019 | [5] -0.045 | [6] -0.007 | [7] 0.02 | [8] -0.024 | [9] 0.048 | [10] -0.003

Going on with the list:

RPL13 (UniProt P26373)
inactive: [1] -0.009 | [2] -0.256 | [3] -0.028 | [4] -0.011 | [5] -0.005 | [6] -0.012 | [7] 0.03 | [8] 0.021 | [9] -0.05 | [10] -0.021

RPL18A (UniProt Q02543)
inactive: [1] -0.02 | [2] -0.094 | [3] -0.003 | [4] -0.059 | [5] 0.009 | [6] 0.024 | [7] -0.023 | [8] 0.023 | [9] -0.003 | [10] -0.002

RHOU (UniProt Q7L0Q8)
inactive: [1] -0.052 | [2] 0.07 | [3] -0.096 | [4] -0.054 | [6] 0.002 | [7] 0.061 | [8] -0.006 | [9] 0.03 | [10] -0.089

RNF166 (UniProt Q96A37)
inactive: [1] -0.142 | [2] -0.035 | [3] 0.109 | [4] 0.086 | [5] -0.293 | [6] 0.112 | [7] -0.055 | [8] -0.024 | [9] -0.053 | [10] 0.078

RIC1 (UniProt Q4ADV7)
inactive: [1] 0 | [2] -0.239 | [3] -0.074 | [4] 0.025 | [5] -0.176 | [6] 0.044 | [7] 0.035 | [8] 0.038 | [9] 0.057 | [10] 0.022

RPL35 (UniProt P42766)
inactive: [1] -0.052 | [2] -0.073 | [3] 0.004 | [4] 0 | [5] -0.02 | [6] 0.027 | [7] 0.041 | [8] 0.013 | [9] -0.029 | [10] 0.029

RPA2 isoform 3 (UniProt P15927)
inactive: [1] 0.009 | [2] 0.04 | [3] 0.024 | [4] 0.001 | [5] 0.005 | [6] -0.007 | [7] 0.018 | [8] 0.001 | [9] 0.011 | [10] 0.001

RNF170 (UniProt Q96K19)
inactive: [1] 0.062 | [2] -0.018 | [3] -0.125 | [4] 0.136 | [5] 0.032 | [7] -0.577

RIOK2 (UniProt Q9BVS4)
inactive: [1] -0.018 | [2] -0.045 | [3] -0.015 | [4] 0.07 | [5] 0.038 | [6] 0.029 | [8] -0.01 | [9] -0.019 | [10] -0.005
active: [7] 0.395

RIOX2 (UniProt Q8IUF8)
inactive: [1] -0.002 | [2] 0.002 | [3] 0.032 | [4] -0.068 | [5] 0.028 | [6] 0.019 | [7] -0.078 | [8] 0 | [9] 0.067 | [10] -0.002

RPL35A (UniProt P18077)
inactive: [1] 0.005 | [2] -0.089 | [3] -0.025 | [4] 0.004 | [5] -0.041 | [6] 0 | [7] -0.014 | [8] 0.019 | [9] -0.042 | [10] 0.021

RNF168 (UniProt Q8IYW5)
active: [8] -0.311
inactive: [1] -0.018 | [2] -0.023 | [3] 0.001 | [4] -0.081 | [5] 0.037 | [6] -0.007 | [7] -0.114 | [9] 0.053 | [10] 0.008

RPL19 (UniProt P84098)
inactive: [1] -0.076 | [2] -0.071 | [3] -0.064 | [4] -0.014 | [5] 0.017 | [6] 0.001 | [7] 0.069 | [8] 0.015 | [9] -0.049 | [10] -0.022

RPF2 (UniProt Q9H7B2)
inactive: [1] 0.098 | [2] 0.105 | [3] 0.079 | [4] 0.026 | [5] 0.075 | [6] 0.044 | [7] -0.035 | [8] -0.02 | [9] 0.026 | [10] -0.012

RMI2 (UniProt Q96E14)
inactive: [1] 0.051 | [2] -0.246 | [3] -0.121 | [4] 0.206 | [6] 0.002 | [7] -0.121 | [8] -0.044 | [9] 0.117 | [10] 0.054

RIDA (UniProt P52758)
inactive: [1] -0.027 | [2] -0.31 | [3] -0.001 | [4] -0.034 | [5] -0.036 | [6] 0.01 | [7] 0.033 | [8] 0.009 | [9] 0.056 | [10] -0.085

RNF20 (UniProt Q5VTR2)
inactive: [1] -0.003 | [2] 0.019 | [3] 0.018 | [4] 0.005 | [5] -0.027 | [6] 0.024 | [7] -0.017 | [8] -0.006 | [9] -0.007 | [10] 0.011

RMDN1 (UniProt Q96DB5)
inactive: [1] -0.004 | [2] 0.041 | [3] -0.004 | [4] -0.029 | [5] 0.02 | [6] 0.031 | [7] -0.031 | [8] 0.026 | [9] 0.099 | [10] -0.002

RPAP2 (UniProt Q8IXW5)
inactive: [1] 0.024 | [2] 0.005 | [3] 0.035 | [4] 0.023 | [5] -0.048 | [6] -0.008 | [7] -0.03 | [8] -0.028 | [9] 0.029 | [10] 0.037

RNASET2 (UniProt O00584)
inactive: [1] 0.003 | [2] 0.016 | [3] 0.024 | [4] -0.05 | [5] -0.017 | [6] -0.02 | [7] 0.009 | [8] -0.002 | [9] -0.001 | [10] 0.025

RNF25 (UniProt Q96BH1)
inactive: [1] -0.004 | [2] -0.051 | [3] 0.027 | [4] 0.055 | [5] -0.011 | [6] -0.003 | [7] -0.005 | [8] 0 | [9] -0.015 | [10] 0.012

RPL23 (UniProt P62829)
inactive: [1] -0.025 | [2] -0.158 | [3] 0.023 | [4] -0.003 | [5] -0.015 | [6] 0.007 | [7] -0.015 | [8] 0.007 | [9] 0.004 | [10] 0.006

Source: the supplement of paper PMC10849652
